No constants are given. Whether binding was seen depends on the method and setting. Binding seen in cells or lysates may run through a third protein. Some entries that bind do so weakly or less than the wild type.

Protein sequences, listed by entry. Tags and fused reporters are not part of them.
UniProt Q92804: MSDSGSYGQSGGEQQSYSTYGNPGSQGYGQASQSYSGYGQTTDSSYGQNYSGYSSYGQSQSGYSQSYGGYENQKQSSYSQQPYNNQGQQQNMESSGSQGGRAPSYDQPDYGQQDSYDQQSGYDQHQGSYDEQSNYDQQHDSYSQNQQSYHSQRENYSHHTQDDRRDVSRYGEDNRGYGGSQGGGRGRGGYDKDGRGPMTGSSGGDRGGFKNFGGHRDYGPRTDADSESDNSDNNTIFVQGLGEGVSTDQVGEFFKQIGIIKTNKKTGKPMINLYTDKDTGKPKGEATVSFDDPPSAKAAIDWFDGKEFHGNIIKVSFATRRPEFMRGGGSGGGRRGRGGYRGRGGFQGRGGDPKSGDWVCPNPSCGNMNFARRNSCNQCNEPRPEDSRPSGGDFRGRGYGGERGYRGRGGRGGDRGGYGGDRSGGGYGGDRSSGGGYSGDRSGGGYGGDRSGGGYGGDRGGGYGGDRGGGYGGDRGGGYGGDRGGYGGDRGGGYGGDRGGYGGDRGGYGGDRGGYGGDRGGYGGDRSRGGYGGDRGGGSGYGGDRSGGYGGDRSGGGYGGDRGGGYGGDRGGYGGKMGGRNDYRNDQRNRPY
UniProt P35637: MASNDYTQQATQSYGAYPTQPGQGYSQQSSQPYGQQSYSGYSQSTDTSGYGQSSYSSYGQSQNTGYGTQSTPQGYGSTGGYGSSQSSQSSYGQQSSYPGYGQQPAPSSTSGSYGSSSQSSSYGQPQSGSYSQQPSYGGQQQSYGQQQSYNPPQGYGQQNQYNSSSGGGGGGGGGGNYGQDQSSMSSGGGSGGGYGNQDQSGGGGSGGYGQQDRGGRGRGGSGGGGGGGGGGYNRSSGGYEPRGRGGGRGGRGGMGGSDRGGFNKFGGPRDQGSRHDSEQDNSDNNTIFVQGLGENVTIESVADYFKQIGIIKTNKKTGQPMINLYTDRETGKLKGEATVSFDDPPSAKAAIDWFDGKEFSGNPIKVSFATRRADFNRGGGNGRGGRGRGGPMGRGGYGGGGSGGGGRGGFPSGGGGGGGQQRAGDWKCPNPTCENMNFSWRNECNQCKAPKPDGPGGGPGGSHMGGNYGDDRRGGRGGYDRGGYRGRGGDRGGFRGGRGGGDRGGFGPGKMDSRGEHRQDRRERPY

In the experiment the target is V5-tagged TAF15 (human) (UniProt Q92804). Description: co-IP; TAF15-V5 and FUS-Myc expressed separately in HEK293T cells; lysates mixed after lysis; immunoprecipitation by V5 or by Myc, blot for the other tag.

On to “Myc-tagged FUS (from UniProt P35637 1-526)”, for which the binding result was “binds”.

The record behind these values is article PMC4935974.
